Experimental data as given in the supplement of paper PMC7858590.
± gives the standard deviation of the averaged measurements. Over roughly 3,800 compounds, “cell shape (eccentricity) Z-score vs DMSO control” has its median near 1.1; the lowest 2% begin near -4.7. This is one part of the list.

Tested on: human monocyte-derived macrophages (M0)
Assay: cell shape (eccentricity) Z-score vs DMSO control; higher = more elongated, M2-like morphology
Conditions: 20 µM; 24 h; macrophage state: M0 (M-CSF)

| SMILES | cell shape (Z-score) |
| --- | --- |
| CN(Cc1ccccc1)C(=O)[C@H](Cc1ccc2ccccc2c1)NC(=O)[C@@H]1C[C@@H](O)CN1C(=O)c1cn(C)c2ccccc12 | 3.67 |
| C=C1CCC2[C@](C)(CCC[C@]2(C)C(=O)O)[C@H]1CC/C(C)=C/C(=O)O (stereo partly specified) | 0.268 |
| CC(C)[C@H](O)C(=O)N[C@@H](C)C(=O)N[C@@H]1C(=O)N(C)CCc2ccccc21 | -0.303 |
| OC(CCl)CN1CC[N+]2(CC1)CC[N+]1(CCN(CC(O)CCl)CC1)CC2 (stereo unspecified) | -0.229 |
| Cc1noc(NS(=O)(=O)c2cccc3c(N(C)C)cccc23)c1C | -0.278 |
| CC(=O)N[C@H]1[C@H](O[C@H]2CC[C@@]3(C)C(CC[C@]4(C)C3CC=C3[C@@H]5CC(C)(C)CC[C@]5(C(=O)OC5OCC(O)C(O)C5O)C(O)C[C@]34C)C2(C)C)O[C@H](COC2OCC(O)C(OC3OCC(O)C(O)C3O)C2O)[C@@H](O[C@@H]2O[C@@H](C)[C@H](O)[C@@H](O)[C@H]2O[C@@H]2O[C@@H](C)[C@H](O)[C@@H](O)[C@H]2O)[C@@H]1O (stereo partly specified) | -2.27 ± 4.4 |
| CCOC(=O)C1CN(Cc2ccccc2)C(=O)C1=O (stereo unspecified) | 3.41 |
| COCCOC(=O)C1=C(C)NC(C)=C(C(=O)OCC=Cc2ccccc2)C1c1cccc([N+](=O)[O-])c1 (stereo unspecified) | 3.39 |
| CCN1C(=CC=Cc2ccc3ccccc3[n+]2CC)C=Cc2ccccc21 | -7.46 |
| COc1cc(/C=C/C(=O)O[C@H]2CC[C@]34CC35CC[C@]3(C)[C@@H](C(C)CCC=C(C)C)CC[C@@]3(C)C5CCC4C2(C)C)ccc1O (stereo partly specified) | -1.25 |
| COc1ccc(C2C(C(=O)Nc3ccccc3)=C(C)N=c3s/c(=C\c4cn(Cc5ccccc5)c5ccccc45)c(=O)n32)cc1 (stereo unspecified) | 4.52 |
| CNC[C@@H]1Oc2ccc(N(C)C)cc2CC(=O)N([C@@H](C)CO)C[C@@H]1C | 3.41 |
| COc1cc(SC)ccc1-c1nc2ccncc2[nH]1 | 0.475 |
| CCN(CC)CCn1c(=O)c(Cc2ccc(OC)cc2)nc2ccccc21 | 0.381 |
| CCCCCCCCCCC(C)(C)C(=O)Nc1c(OC)cc(OC)cc1OC | 5.62 |
| COc1ccc2[nH]c(S(=O)Cc3ncc(C)c(OC)c3C)nc2n1 (stereo unspecified) | -0.433 |
| CCCCn1c(=O)c2c(ncn2CC(C)=O)n(CCCC)c1=O | 0.547 |
| C=C(C(=O)O)[C@@H]1CC[C@@]2(C)CC(=O)C=C(C)C2C1 (stereo partly specified) | -1.55 |
| C=CC1=C(C(=O)O)N2C(=O)[C@@H](NC(=O)/C(=N\OCC(=O)O)c3csc(N)n3)[C@H]2SC1 | -0.525 |
| COc1cc2nccc(Oc3ccc(NC(=O)Nc4ccc(F)cc4F)c(F)c3)c2cc1OC | 8.2 |
| COC(=O)C1=CO[C@@H](O[C@@H]2O[C@H](CO)[C@@H](O)[C@H](O)[C@H]2O)[C@@H]2[C@@H](C)[C@@H](OC(=O)C3=CO[C@@H](O[C@@H]4O[C@H](CO)[C@@H](O)[C@H](O)[C@H]4O)[C@@H]4[C@@H](C)[C@@H](OC(C)=O)C[C@H]34)C[C@H]12 | 1.7 |

5 compounds from above, arranged by formula weight, low to high.

| SMILES | cell shape (Z-score) |
| --- | --- |
| CCN1C(=CC=Cc2ccc3ccccc3[n+]2CC)C=Cc2ccccc21 | -7.46 |
| CCN(CC)CCn1c(=O)c(Cc2ccc(OC)cc2)nc2ccccc21 | 0.381 |
| C=CC1=C(C(=O)O)N2C(=O)[C@@H](NC(=O)/C(=N\OCC(=O)O)c3csc(N)n3)[C@H]2SC1 | -0.525 |
| COc1cc(/C=C/C(=O)O[C@H]2CC[C@]34CC35CC[C@]3(C)[C@@H](C(C)CCC=C(C)C)CC[C@@]3(C)C5CCC4C2(C)C)ccc1O (stereo partly specified) | -1.25 |
| CC(=O)N[C@H]1[C@H](O[C@H]2CC[C@@]3(C)C(CC[C@]4(C)C3CC=C3[C@@H]5CC(C)(C)CC[C@]5(C(=O)OC5OCC(O)C(O)C5O)C(O)C[C@]34C)C2(C)C)O[C@H](COC2OCC(O)C(OC3OCC(O)C(O)C3O)C2O)[C@@H](O[C@@H]2O[C@@H](C)[C@H](O)[C@@H](O)[C@H]2O[C@@H]2O[C@@H](C)[C@H](O)[C@@H](O)[C@H]2O)[C@@H]1O (stereo partly specified) | -2.27 ± 4.4 |
